Measured values published in patent EP0969016 (dated 2000).

Experiments:
[1] = general procedure: Boc solid-phase peptide synthesis; p-methylbenzhydrylamine (HCl salt) resin; N-methylpyrrolidone/hydroxybenzotriazole t-BOC cycles; settings: late stage modification step, based on HPLC peak areas
[2] = peptide synthesis; settings: whole synthesis

H2N-R-COOH wherein R is a derivative of His-Ala-Glu-Gly-Thr-Phe-Thr-Ser-Asp-Val-Ser-Ser-Tyr-Leu-Glu-Gly-Gln-Ala-Ala-Lys-Glu-Phe-Ile-Ala-Trp-Leu-Val-Lys-Gly-Arg-Gly (SEQUENCE ID NO: 2) where the derivative is N-terminal (N-alpha) succinoylated and the epsilon amine group of both Lys residues are succ
step yield [1]: approximately 90%

H2N-R-X-(Y)n-Z wherein n is zero; X is arg; Z is CONR^2R^3 where R^2 and R^3 are H; and R is His-Ala-Glu-Gly-Thr-Phe-Thr-Ser-Asp-Val-Ser-Ser-Tyr-Leu-Glu-Gly-Gln-Ala-Ala-Lys-Glu-Phe-Ile-Ala-Trp-Leu-Val-Lys-Gly-Arg-Gly (SEQUENCE ID NO: 2)
difficulty met [2]: Analytical HPLC data suggested incomplete removal of the Trp formyl protecting group
